Values of other authors as cited in PMC10056008 (Pharmaceuticals, 2023).

Conditions: co-administration of verapamil; cited from earlier work

| SMILES | systemic exposure elevated by verapamil |
| --- | --- |
| CC(C)(C(=O)O)c1ccc([C@H](O)CCCN2CCC(C(O)(c3ccccc3)c3ccccc3)CC2)cc1 [R-fexofenadine] | 234% |
| CC(C)(C(=O)O)c1ccc(C(O)CCCN2CCC(C(O)(c3ccccc3)c3ccccc3)CC2)cc1 (centres unmarked) [S-fexofenadine] | 261% |
